This passage reports MIC results from ChEMBL document CHEMBL1154551, “Microbial transformation of benzosampangine” (2000).

Structures are written as SMILES. Converted amounts (≈) assume the structure as drawn.

This experiment concerns Candida albicans. Kind of experiment: Antimicrobial activity against Candida albicans. Format: functional.

In the case of `C[C@@H]1[C@H](O)[C@@H](C)/C=C/C=C/C=C/C=C/C=C/C=C/C=C/[C@H](O[C@@H]2O[C@H](C)[C@@H](O)[C@H](N)[C@@H]2O)C[C@@H]2O[C@](O)(C[C@@H](O)C[C@@H](O)[C@H](O)CC[C@@H](O)C[C@@H](O)CC(=O)O[C@H]1C)C[C@H](O)[C@H]2C(=O)O` [AMPHOTERICIN B], it took 0.78 µg/mL (≈ 0.844 µM) to inhibit growth (MIC).
